# Screening data, single-dose tests

Chains of the proteins cited; added tags and fusions are not shown. Residues count along the entry.
UniProt Q8IDJ8, 1-583: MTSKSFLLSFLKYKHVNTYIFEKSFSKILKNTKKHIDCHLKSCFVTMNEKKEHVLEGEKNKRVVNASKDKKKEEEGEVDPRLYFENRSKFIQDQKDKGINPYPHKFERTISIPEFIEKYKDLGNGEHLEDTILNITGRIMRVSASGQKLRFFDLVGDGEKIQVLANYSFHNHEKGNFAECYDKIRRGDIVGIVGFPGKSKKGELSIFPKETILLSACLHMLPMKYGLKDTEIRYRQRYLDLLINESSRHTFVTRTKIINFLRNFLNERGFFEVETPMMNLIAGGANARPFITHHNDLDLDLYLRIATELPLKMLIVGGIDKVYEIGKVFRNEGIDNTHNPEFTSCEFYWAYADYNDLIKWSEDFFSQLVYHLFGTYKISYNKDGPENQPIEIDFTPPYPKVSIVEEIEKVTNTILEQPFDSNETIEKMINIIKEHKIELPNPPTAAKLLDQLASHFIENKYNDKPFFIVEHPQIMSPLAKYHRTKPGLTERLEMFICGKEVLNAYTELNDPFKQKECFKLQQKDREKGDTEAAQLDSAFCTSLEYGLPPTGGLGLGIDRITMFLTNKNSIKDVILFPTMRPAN

Data taken from ChEMBL document CHEMBL3988442, “University of Dundee, Small-Polar-MMV Screening Library” (2021).

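Lysine-tRNA ligase, Plasmodium falciparum 3D7 (UniProt Q8IDJ8). Enzyme assay of the cytosolic lysyl-tRNA synthetase in 384-well plates, read by luminescence. Tested at 30 µM. Direction is inferred from only a few compounds that gave an IC50; most scored high, so higher reads as stronger inhibition. Size under these conditions: about 69,000 compounds, about 49 of them at 50% or above in at least one test.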

Results are given as percent effect.
How 0% and 100% were set is not recorded. Most values in the screen are low, and negative values occur.
Compounds were drawn at random from those tested, without regard to their results.

Compound | Percent Effect
CCOc1cccnc1C(=O)N1CCC(c2ccccc2OC)C1 (centres unmarked) | 2.582%
CC(C)c1noc(CN2CCOCC2C)n1 (centres unmarked) | 3.429%
O=C(COc1ccccc1)N1C[C@@H]2COC[C@]2(COc2cccnc2)C1 | 4.306%
N#CC1(C(=O)NCC2CCC3(CCNCC3)O2)CC1 (centres unmarked) | -1.4%
CCC(O)CNC(=O)C1(N(C)Cc2ccccc2)Cc2ccccc2C1 (centres unmarked) | 1.691%
COCc1cncc2c1CCN(C(=O)c1ccoc1C)C2 | -0.6966%
Cc1nc(-c2ccncc2)ncc1C(C)NC(=O)Cn1ccccc1=O (centres unmarked) | 4.258%
Cc1nccn1CCCN1CCCC(c2ccccc2)C1 (centres unmarked) | 4.415%
CCC(CC)c1cc(C(=O)N2CCN(C(C)C(N)=O)CC2)on1 (centres unmarked) | 2.822%
Cn1cnnc1C1CCCN(C(=O)COCc2ccccc2)C1 (centres unmarked) | 0.06352%
Cc1n[nH]c(C)c1CCC(=O)N1CCc2c(nc[nH]c2=O)C1 | 0.07766%
O=C(c1ccno1)N1CCOC[C@H](Oc2ccc(C(F)(F)F)cc2)C1 | 4.212%
CCc1nc(C2CCCN2C(=O)c2ccc(N(C)C)nn2)no1 (centres unmarked) | -0.2158%
COCCN1C(=O)CCC12CCCN(C(=O)NC(C)C)CC2 (centres unmarked) | -1.265%
CCC(CO)N(Cc1cccc(O)c1)Cc1ccccc1C (centres unmarked) | 4.551%
Cc1csc(N2CCCN(C(=O)C3(C#N)CCCC3)CC2)n1 | 0.9339%
CCn1cnnc1C1CCN(C(=O)c2cnn(C(C)(C)C)c2)CC1 | 6.803%
CCNc1ccnc(NCC2(N(C)C)CCOCC2)n1 | 5.849%
O=C1N(Cc2ccc(F)c(F)c2)CCCC1(O)CNCc1cccnc1 (centres unmarked) | 4.596%
Cn1ccnc1-c1noc(NCc2ccc3c(c2)OCCO3)n1 | 3.013%
COCCN(Cc1ccc(C)o1)C(=O)Nc1nnc(C(F)F)s1 | 0.329%
CC1CCN(C(=O)NCCc2cc(F)ccc2F)C1 (centres unmarked) | 0.7584%
COCCN1C(=O)CCC12CCCN(Cc1nccs1)CC2 (centres unmarked) | -1.59%
CC1=Nc2c(c(=O)[nH]n2C(C)C)C(c2cccc(OC(F)F)c2)S1 (centres unmarked) | 5.092%
COCC(O)CNC(=O)c1cnc(-c2ccccc2)nc1O (centres unmarked) | 5.412%
O=C(C1CC=CC1)N1CCC2(CC1)OCCO2 | 0.6861%
CCN(Cc1nc(Cc2ccccc2)no1)C1CC1 | 3.162%
COc1ccc(F)cc1C(C)NC(=O)Cn1ccc(=O)n(C)c1=O (centres unmarked) | 2.182%
COCC1CN(S(=O)(=O)c2cccc(F)c2)Cc2nccn2C1 (centres unmarked) | 2.157%
COc1ccc(C(=O)C2CCCN(c3cc(OC)ncn3)C2)c(C)c1 (centres unmarked) | 8.88%
CC(C(=O)O)n1nc(C(F)(F)F)c(Cl)c1C1CC1 (centres unmarked) | -3.592%
CNC(=O)[C@@H]1C[C@@H]2CCN(Cc3ccoc3)C[C@H]2O1 | 2.892%
CC(=O)N(Cc1noc(C)n1)C1CCN(CC2CCCC2)C1 (centres unmarked) | 6.46%
CC(=O)N1[C@H](CN(C)C)C[C@@H]2CN(C(=O)c3ccno3)CC[C@@H]21 | 4.346%
Cc1nc2ccccc2c(=O)n1CCC(=O)N1CCSCC1 | 7.701%
CCC1c2ccsc2CCN1C(=O)NCc1cccnc1OC (centres unmarked) | 0.1004%
Nc1cc(-c2cncnc2C2CCN(C(=O)c3ccccc3)C2)ccn1 (centres unmarked) | 3.08%
CN(CCO)Cc1nnc(C2CCN(CC(C)(C)C)CC2)n1C | 2.38%
Cc1ccccc1-n1nccc1NC(=O)CCOC(C)C | 2.526%
CC(C)N1CCCn2nc(C(=O)NCc3ccccc3F)cc2C1 | 4.935%
CCCn1ccnc1CN1C[C@@H](NC(C)=O)[C@H](c2ccc(C)cc2)C1 | 5.77%
CN(C)c1ccc(NC(=O)c2cccc(N(C)C)c2)nc1 | -3.374%
CC(C(=O)Nc1ccc(N2CCOCC2)nc1)n1cncn1 (centres unmarked) | 0.1838%
CS(=O)(=O)NC1CCN(C(=O)COCc2ccccc2)CC1 | 5.895%
COc1ccc(CN2CC[C@@H]3CN(S(C)(=O)=O)CCO[C@@H]3C2)cc1 | -0.4693%
Cc1cc(NC(=O)N2CCN(c3cccs3)CC2)ccc1C(N)=O | 2.126%
Cc1nc(CN2CCN(C(=O)CCc3cccnc3)CC2)no1 | 7.775%
CS(=O)(=O)N1CCC2(CC1)COC(COc1ccccn1)C2 (centres unmarked) | -1.828%
O=S1(=O)NC(C2CCN(Cc3ccncc3)CC2)Nc2ccccc21 (centres unmarked) | -1.179%
NC(=O)CN1CC2(CCC1=O)CCN(Cc1cc(F)cc(F)c1)CC2 | 5.606%
Cc1cc(CCC2CN(Cc3ccccc3C(=O)O)CCO2)ncn1 (centres unmarked) | -0.1152%
COCC(=O)N1CCCC1c1cccc(Nc2ncc(C)s2)n1 (centres unmarked) | 1.641%
O=C1CC(N(C(=O)CCc2c[nH]c3ccccc23)C2CC2)C(=O)N1 (centres unmarked) | 1.707%
COc1cc(CNCc2ccc(C(C)O)cc2)cc2c1OCO2 (centres unmarked) | -0.5979%
CCCc1noc2ncc(C(=O)N3CCCC3c3cnn(C)c3)cc12 (centres unmarked) | 0.8998%
Cc1nc(CN2CCC(c3cc(N4CCCC4)ncn3)CC2)cs1 | 10.68%
CCS(=O)(=O)N1CCC2(CCN(Cc3ccc(C)o3)C2)C1 (centres unmarked) | -5.056%
Cc1[nH]nc(CCC(=O)N2C[C@H]3CC[C@@H]2CN(C(=O)N(C)C)C3)c1C | 3.297%
CCn1cc(S(=O)(=O)N2CCCCCC2c2cc(C)no2)cn1 (centres unmarked) | 0.02102%
CCN(CCNCc1ccc(C#N)cc1)C1CC1 | -1.568%

Repeated from the top, 4 entries:

| Compound | Percent Effect |
|---|---|
| `CCOc1cccnc1C(=O)N1CCC(c2ccccc2OC)C1` (centres unmarked) | 2.582% |
| `CC(C)c1noc(CN2CCOCC2C)n1` (centres unmarked) | 3.429% |
| `O=C(COc1ccccc1)N1C[C@@H]2COC[C@]2(COc2cccnc2)C1` | 4.306% |
| `N#CC1(C(=O)NCC2CCC3(CCNCC3)O2)CC1` (centres unmarked) | -1.4% |